Reference: article doi:10.1101/609503
Read-outs that look alike come from different tables or passages of the source. No constants are given. Whether binding was seen depends on the method and setting. Some results given as binding are weak or reduced against the parent protein; the word gives no strength. For part of these data: Tags and fused reporters may be left off the sequences shown.

By UniProt entry, the sequences of proteins in these tests, tags left out. Residues count along the entry.
UniProt P24228, residues 21-477: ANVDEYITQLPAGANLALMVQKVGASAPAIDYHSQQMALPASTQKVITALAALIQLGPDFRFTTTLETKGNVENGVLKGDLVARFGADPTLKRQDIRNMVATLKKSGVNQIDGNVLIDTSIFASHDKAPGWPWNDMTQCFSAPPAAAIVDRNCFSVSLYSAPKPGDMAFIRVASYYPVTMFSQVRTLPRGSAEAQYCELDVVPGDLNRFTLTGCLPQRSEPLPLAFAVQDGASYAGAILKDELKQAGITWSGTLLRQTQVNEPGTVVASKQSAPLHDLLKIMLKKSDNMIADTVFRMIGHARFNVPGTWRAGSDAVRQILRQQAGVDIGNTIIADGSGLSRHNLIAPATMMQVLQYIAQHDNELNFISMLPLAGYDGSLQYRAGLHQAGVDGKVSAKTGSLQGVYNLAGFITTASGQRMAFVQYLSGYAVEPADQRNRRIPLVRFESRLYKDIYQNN
UniProt P0AFB1, residues 19-294: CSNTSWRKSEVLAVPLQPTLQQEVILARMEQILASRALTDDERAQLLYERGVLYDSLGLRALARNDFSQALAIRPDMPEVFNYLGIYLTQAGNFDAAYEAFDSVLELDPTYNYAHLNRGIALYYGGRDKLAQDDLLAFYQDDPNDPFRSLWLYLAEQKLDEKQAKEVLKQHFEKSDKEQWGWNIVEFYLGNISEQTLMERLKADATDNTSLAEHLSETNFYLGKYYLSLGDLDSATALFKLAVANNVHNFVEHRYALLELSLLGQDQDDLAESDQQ

Columns and labels:
MepS (E. coli) [1] = target: T1, MepS (E. coli) (UniProt P0AFV4); experiment: MST
T1 sequence (chain, NT647 RED-NHS dye on amines where used as the labelled partner (fl-MepS)): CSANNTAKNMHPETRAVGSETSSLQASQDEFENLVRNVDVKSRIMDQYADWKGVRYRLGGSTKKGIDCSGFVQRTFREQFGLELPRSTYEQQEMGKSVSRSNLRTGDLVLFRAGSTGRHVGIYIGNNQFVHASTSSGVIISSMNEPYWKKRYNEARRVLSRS

PBP1A (E. coli) [2] = target: T2, PBP1A (E. coli) (UniProt P02918); experiment: MST
T2 sequence (chain, NT647 RED-NHS dye on amines (fl-PBP1A)): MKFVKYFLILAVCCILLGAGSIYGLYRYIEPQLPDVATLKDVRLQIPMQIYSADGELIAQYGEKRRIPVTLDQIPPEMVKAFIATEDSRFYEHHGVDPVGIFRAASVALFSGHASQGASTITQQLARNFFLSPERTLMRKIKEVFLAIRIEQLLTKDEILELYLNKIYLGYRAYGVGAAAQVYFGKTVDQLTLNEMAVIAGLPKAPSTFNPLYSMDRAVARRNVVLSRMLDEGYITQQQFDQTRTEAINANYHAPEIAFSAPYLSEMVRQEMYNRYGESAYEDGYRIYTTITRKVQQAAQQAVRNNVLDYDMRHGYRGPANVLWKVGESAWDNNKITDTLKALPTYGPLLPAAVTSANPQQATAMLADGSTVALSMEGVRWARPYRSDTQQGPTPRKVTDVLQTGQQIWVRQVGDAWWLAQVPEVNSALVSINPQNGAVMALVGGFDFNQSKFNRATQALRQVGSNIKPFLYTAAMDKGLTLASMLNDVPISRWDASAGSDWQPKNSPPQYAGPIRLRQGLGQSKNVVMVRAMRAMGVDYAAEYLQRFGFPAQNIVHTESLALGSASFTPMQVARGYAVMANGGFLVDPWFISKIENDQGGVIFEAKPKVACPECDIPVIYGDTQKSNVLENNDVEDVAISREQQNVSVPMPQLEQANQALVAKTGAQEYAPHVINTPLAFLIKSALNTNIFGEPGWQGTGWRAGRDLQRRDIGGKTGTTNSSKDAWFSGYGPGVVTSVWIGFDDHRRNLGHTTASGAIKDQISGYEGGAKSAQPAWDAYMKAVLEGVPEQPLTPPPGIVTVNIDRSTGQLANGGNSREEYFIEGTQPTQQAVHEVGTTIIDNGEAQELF

MepS (E. coli) [3] = target: T1, MepS (E. coli); experiment: MST; remark: listed apart in the source
His-Slt (E. coli) = target: T3, His-Slt (E. coli) (UniProt P0AGC3); experiment: pull-down
T3 sequence: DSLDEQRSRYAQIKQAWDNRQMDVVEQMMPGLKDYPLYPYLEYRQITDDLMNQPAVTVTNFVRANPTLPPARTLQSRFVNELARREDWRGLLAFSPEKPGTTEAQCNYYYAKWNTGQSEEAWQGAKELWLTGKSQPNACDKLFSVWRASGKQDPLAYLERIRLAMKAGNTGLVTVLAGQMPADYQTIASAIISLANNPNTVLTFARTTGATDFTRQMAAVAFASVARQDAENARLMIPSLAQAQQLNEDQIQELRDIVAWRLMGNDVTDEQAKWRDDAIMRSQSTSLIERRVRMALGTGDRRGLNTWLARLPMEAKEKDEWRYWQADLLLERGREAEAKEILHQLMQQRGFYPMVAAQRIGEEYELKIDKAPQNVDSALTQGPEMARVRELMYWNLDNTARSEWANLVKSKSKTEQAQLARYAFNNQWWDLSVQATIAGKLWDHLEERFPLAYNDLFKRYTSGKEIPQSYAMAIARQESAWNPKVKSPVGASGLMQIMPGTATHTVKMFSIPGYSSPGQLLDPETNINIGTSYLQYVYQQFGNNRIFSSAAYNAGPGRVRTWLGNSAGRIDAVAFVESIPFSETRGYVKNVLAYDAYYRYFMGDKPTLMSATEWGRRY

PBP1A (E. coli) [4] = target: T2, PBP1A (E. coli); experiment: MST; remark: listed apart in the source

## PBP4 (native) (from UniProt P24228 21-477) (enzyme)
MepS (E. coli) [1]
  binding: no binding (tested: 30 μM)
PBP1A (E. coli) [2]
  binding: binds
MepS (E. coli) [3]
  binding: no binding (tested: 50 μM)

## preformed NlpI-PBP4 complex (from UniProt P0AFB1 19-294; P24228 21-477)
MepS (E. coli) [1]
  binding: binds
PBP1A (E. coli) [2]
  binding: binds

## tagless NlpI (from UniProt P0AFB1 19-294)
His-Slt (E. coli)
  binding: no binding (tested: 1 or 2 μM)

## preformed NlpI-PBP7 complex (from UniProt P0AFB1 19-294; P0AFI5 26-310)
MepS (E. coli) [1]
  binding: binds

## NlpI (soluble version, residues 19-294) (from UniProt P0AFB1 19-294)
PBP1A (E. coli) [2]
  binding: no binding
PBP1A (E. coli) [4]
  binding: no binding (tested: 50 μM)
